Drawing on patent US20100021386A1, this text covers binding for 1 substance.

Protein sequences, listed by entry. Tags and fused reporters are not part of them. Residues count along the entry.
UniProt P24062, residues 31-1370: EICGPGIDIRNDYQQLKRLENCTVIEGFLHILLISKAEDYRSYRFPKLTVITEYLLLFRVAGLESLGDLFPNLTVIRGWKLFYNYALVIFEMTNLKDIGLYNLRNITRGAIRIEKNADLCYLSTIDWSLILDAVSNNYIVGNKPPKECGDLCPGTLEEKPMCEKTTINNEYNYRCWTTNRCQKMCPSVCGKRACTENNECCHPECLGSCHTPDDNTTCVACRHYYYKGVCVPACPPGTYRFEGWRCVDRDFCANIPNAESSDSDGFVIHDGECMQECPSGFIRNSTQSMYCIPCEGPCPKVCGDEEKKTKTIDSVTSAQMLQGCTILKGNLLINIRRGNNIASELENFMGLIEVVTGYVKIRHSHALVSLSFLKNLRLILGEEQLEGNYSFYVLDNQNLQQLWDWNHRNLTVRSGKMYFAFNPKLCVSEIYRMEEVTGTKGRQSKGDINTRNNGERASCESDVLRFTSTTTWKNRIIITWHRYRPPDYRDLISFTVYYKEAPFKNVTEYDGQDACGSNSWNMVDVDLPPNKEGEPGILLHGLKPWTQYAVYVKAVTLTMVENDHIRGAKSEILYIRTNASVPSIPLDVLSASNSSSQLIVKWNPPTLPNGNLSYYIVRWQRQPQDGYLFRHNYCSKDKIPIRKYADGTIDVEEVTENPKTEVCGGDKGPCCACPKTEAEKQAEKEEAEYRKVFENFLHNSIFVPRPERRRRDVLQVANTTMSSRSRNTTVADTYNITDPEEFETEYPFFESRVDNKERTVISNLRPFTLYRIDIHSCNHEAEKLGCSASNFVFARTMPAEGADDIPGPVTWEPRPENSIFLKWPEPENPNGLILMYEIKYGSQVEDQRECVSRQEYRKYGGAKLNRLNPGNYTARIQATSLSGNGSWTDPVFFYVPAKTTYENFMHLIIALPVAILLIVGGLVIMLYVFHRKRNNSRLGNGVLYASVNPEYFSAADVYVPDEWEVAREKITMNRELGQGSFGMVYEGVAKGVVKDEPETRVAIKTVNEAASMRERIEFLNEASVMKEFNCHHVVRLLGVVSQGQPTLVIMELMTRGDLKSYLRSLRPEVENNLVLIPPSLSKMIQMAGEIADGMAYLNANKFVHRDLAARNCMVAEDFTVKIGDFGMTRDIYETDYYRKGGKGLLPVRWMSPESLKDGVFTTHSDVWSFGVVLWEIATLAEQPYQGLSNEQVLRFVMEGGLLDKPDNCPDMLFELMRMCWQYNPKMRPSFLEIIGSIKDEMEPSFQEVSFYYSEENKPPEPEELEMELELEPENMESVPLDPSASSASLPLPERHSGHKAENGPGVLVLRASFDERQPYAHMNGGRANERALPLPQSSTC
UniProt P05019, residues 49-118: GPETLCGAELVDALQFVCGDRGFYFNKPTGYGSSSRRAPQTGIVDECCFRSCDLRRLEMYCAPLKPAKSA

Results are given in words; binding and its absence hold for the method and conditions named. Some binding calls cover weakened binding; strength is not graded here.

The target in the assay is IGF-I receptor (Long Evans rat liver) (rat) (UniProt P24062). Put plainly: competitive equilibrium binding of [125I] ligand to rat liver homogenate, PEG precipitation (Example 1).

“Human recombinant [125I] IGF-I (from UniProt P05019 49-118) (ligand)”: the binding result was “binds”.
